The values that follow come from the supplement of paper PMC11732987, “Enantioselective OTUD7B fragment discovery through chemoproteomics screening and high-throughput optimisation” (Communications Chemistry, 2025).

The chains behind the UniProt entries cited, without tags or fusion partners. Where a name states a change or a piece, a line headed by the entry shows the natural chain unless it says otherwise.
UniProt Q92621: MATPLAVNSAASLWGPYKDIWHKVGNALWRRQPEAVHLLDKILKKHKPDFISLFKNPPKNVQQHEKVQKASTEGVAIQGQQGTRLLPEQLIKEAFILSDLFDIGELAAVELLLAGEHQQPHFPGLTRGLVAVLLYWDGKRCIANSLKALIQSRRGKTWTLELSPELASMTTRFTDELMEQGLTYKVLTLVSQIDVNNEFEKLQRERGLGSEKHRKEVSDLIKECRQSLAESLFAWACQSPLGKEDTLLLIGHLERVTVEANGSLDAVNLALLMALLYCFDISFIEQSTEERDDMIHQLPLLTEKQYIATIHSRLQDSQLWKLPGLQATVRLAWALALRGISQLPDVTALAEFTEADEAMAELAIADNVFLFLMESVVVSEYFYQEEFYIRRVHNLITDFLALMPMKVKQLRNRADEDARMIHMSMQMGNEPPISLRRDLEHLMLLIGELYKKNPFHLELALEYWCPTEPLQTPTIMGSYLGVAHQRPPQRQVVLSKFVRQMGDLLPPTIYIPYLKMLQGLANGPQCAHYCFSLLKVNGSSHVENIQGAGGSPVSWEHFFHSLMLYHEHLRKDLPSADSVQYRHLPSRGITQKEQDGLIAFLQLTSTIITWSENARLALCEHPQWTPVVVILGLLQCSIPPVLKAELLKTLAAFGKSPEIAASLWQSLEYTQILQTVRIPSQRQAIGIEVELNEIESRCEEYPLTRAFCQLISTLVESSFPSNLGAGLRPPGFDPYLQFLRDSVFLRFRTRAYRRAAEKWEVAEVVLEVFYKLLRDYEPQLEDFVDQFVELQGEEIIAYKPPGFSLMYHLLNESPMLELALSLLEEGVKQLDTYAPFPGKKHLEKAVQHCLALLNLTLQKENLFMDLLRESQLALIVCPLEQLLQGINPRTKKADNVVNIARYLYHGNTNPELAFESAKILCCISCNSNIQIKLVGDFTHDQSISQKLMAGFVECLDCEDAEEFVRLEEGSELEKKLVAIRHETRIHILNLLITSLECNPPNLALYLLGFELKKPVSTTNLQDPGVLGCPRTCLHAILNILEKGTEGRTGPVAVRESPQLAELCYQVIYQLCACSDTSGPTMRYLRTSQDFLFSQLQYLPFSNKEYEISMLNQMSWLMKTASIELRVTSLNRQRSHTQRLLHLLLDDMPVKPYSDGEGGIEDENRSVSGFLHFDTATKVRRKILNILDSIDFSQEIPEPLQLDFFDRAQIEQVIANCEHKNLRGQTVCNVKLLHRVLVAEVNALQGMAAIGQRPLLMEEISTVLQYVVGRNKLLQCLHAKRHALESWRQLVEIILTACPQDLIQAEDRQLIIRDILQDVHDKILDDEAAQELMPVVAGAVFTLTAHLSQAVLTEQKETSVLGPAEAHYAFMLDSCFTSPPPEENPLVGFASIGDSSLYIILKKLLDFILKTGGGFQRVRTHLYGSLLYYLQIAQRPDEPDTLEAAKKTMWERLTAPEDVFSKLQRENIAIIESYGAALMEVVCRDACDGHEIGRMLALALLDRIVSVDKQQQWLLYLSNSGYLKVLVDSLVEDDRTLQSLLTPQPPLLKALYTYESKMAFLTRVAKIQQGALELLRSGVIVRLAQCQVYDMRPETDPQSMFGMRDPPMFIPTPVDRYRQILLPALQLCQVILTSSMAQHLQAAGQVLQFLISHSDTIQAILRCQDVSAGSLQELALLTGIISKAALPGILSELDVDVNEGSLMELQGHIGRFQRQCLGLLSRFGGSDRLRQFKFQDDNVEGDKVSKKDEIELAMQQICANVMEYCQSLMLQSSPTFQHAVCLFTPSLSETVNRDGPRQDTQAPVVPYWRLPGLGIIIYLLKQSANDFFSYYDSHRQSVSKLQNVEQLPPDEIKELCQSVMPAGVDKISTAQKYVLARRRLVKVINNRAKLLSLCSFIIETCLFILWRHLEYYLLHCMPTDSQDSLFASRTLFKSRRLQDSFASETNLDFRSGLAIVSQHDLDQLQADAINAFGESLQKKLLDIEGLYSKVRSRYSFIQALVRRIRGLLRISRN

Some of the results follow. The data scatter; read single values as rough.

In the first test the target is T1, NUP205 C1855 (UniProt Q92621).
T1 sequence (whole entry): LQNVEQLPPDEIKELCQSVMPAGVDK
Briefly: log2 mean competition ratio of IA-DTB cysteine labelling (DMSO/compound) (log2 ratio); higher = stronger cysteine engagement by compound. The settings on record: 50 µM; treatment time: 4 h; cell line lysate: HEK293T. The method, then: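 IA-DTB competitive cysteine chemoproteomics in HEK293T RIPA lysate. Lysates were treated with compound 29 or 30 at 50 or 200 µM for 4 h, then IA-DTB (500 µM, 1 h), trypsin-digested, NeutrAvidin-enriched and analysed by diaPASEF. Competition ratio = intensity DMSO / intensity compound (n=4 treated, n=64 DMSO); binding: mean log2 CR ≥ 1 and p ≤ 0.05 plus QC filters. Target is the cysteine site.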
For the compound `O=C(CCl)N[C@H]1CCCc2ccccc21`, the “log2 mean competition ratio” value came to 0.21.
For the compound `O=C(CCl)N[C@@H]1CCCc2ccccc21`, the “log2 mean competition ratio” value was -0.274.

The test is the same for the next values; noted with them: 200 µM; treatment time: 4 h; cell line lysate: HEK293T.
Consider `O=C(CCl)N[C@H]1CCCc2ccccc21`, for which the “log2 mean competition ratio” value is -0.251.
`O=C(CCl)N[C@@H]1CCCc2ccccc21`: the “log2 mean competition ratio” value amounted to 0.0564.
